This assay is described as follows: qHTS Assay for Lipid Storage Modulators in Drosophila S3 Cells.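 For cell number change: cells counted by Cell Tracker Red CMTPX staining in the red channel.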 The conditions noted are these: BODIPY lipid droplet fluorescence, 18-24 h; for cell number change: measured here: cell count max response, cells fed with added oleic acid. A digest of the protocol: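 Laser-scanning cytometry quantifies lipid droplet accumulation (500–530 nm total intensity; droplet/cell object ratio) in oleic acid-fed (400 uM added) Drosophila S3 cells treated with a concentration series. 20 uM Triacsin C defined 100% inhibition.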
(In general: In qHTS, concentration-response curves come from the screen itself.)

Where [1] appears, read: measured here: lipid fluorescence (Fed channel) AC50, cells fed with added oleic acid.
[2] abbreviates: measured here: cell number channel AC50, cells fed with added oleic acid.

The list shows a part of the results. Further columns of the screen follow, without active or inactive calls. The list favours compounds with an active or inconclusive main result. Words in brackets tell the shape of the fitted curve; partial curves, single points and poor fits give uncertain potencies.

For 58 molecules, cell number change and AC50 results are on record in PubChem BioAssay AID2685 (National Center for Advancing Translational Sciences (NCATS), 2010).

The AC50 is the concentration at which the activity in the assay is half-maximal. A higher AC50 goes with activity only at high concentration. For `O=C(NNC(=O)C1CC(=O)N(Cc2ccccc2)C1)c1ccc(Br)cc1` (stereo unspecified), the cell number change was -26.2%. Further, the AC50 under setting [1] was 18.4 µM [rising, partial curve].
On to `Cn1c(CN2CCN(c3ccc(Cl)cc3)CC2)nc2ccccc21`, for which the cell number change amounted to 0.212%. Besides, the half-maximal activity concentration (AC50) under setting [1] was 2.31 µM [rising, partial curve].
As for `CCOC(=O)Cc1cn(C(=O)OC(C)(C)C)c2ccccc12`, the cell number change was -17.1%. Moreover, the AC50 under setting [1] is 0.116 µM [falling, single point].
As for `COc1ccccc1NCCC#N`, the cell number change is 11.3%. The AC50 under setting [1] is 29.1 µM [falling, single point].
Turning to `CN(c1ccc(OCC(=O)OCC(=O)c2c(N)n(C)c(=O)n(C)c2=O)cc1)S(=O)(=O)c1ccc2ccccc2c1`, the cell number change was determined as 7.45%.
With `Cc1ncc(CO)c(/C=N/NC(=O)c2cc3c(s2)CCCC3)c1O`, the cell number change worked out at 55.1%. Also, the AC50 under setting [2] is 11.6 µM [rising, partial curve]. Further, under setting [1], the AC50 is 0.731 µM [rising, single point].
For the molecule `O=C(Nc1ccc2c(c1)OCO2)OCc1ccccc1`, the cell number change came to 1.86%. Besides, under setting [1], the AC50 was 0.517 µM [rising, partial curve].
For `CCCOc1nc(SCCC)nc2c1cnn2-c1ccccc1`, the cell number change is 86.6%. Further, the AC50 under setting [2] is 16.4 µM [rising, partial curve]. Also, under setting [1], the AC50 was 29.1 µM [rising, single point].
With `CCOc1ccc(NC(=O)NC(C)CC)cc1` (stereo unspecified), the cell number change came out at 18.3%. For the same molecule, the half-maximal activity concentration (AC50) under setting [2] was 0.164 µM [falling, full curve, poor fit].
With `Cc1ccc(C(=O)NC(=S)NCC2CCCO2)cc1[N+](=O)[O-]` (stereo unspecified), the AC50 under setting [1] was 0.501 µM [rising, single point].
Turning to `Cc1cc2n(n1)C(c1cccs1)Nc1ccccc1-2` (stereo unspecified), the cell number change was -8.76%. In addition, the AC50 under setting [1] is 6.51 µM [rising, single point].
Take `O=C(COc1ccc(-n2cnnn2)cc1)Nc1cc(Cl)cc(Cl)c1`: the cell number change was determined as 18%.
On to `Cc1ccc(C(=O)Nc2cccc(S(=O)(=O)N(C)c3ccccc3)c2)o1`, for which the cell number change was determined as 3.42%. Further, the AC50 under setting [1] is 3.66 µM [rising, partial curve].
Turning to `CCN(C(=O)C1=COCCO1)c1nc2c(C)cccc2s1`, the AC50 under setting [1] is 2.59 µM [rising, single point].
For `O=C(NCc1ccco1)c1ccc2ccccc2n1`, the cell number change stood at 18.5%. The concentration at half-maximal activity (AC50) under setting [1] is 0.92 µM [rising, full curve, poor fit].
In the case of `O=C(c1ccc(COc2ccccc2[N+](=O)[O-])o1)N1CCCCCC1`, the cell number change is -20.6%.
Take `COc1ccc(S(=O)(=O)N(C)C)cc1NC(=O)c1ccc2c(c1)NC(=O)C(C)S2` (stereo unspecified): the cell number change was -19.7%. Further, the half-maximal activity concentration (AC50) under setting [1] was 4.61 µM [falling, full curve, poor fit].
With `Cc1cc2occ(CC(=O)NC3=NCCS3)c2cc1C(C)C`, the cell number change worked out at 1.34%.
For `Cc1nc2ccccc2c2c1C(=O)N(c1cccc(C(=O)O)c1)C2=O`, the cell number change was -8.47%.
As to `CCOC(=O)N1CCN(C(=O)CCN2C(=O)/C(=C\c3ccccc3OC)SC2=S)CC1`, the cell number change was -8.17%. The AC50 under setting [1] is 2.31 µM [rising, partial curve].
On to `Cc1csc(NC(=O)c2sc3nc(-c4cccs4)ccc3c2N)n1`, for which the cell number change was -46.1%. Further, the AC50 under setting [1] was 29.1 µM [falling, partial curve].
Turning to `O=C(N/N=C/C1CCCCC1)c1cc(Cl)ccc1O`, the cell number change was 12.3%. For the same molecule, the AC50 under setting [1] is 29.1 µM [rising, single point].
Take `COC(=O)[C@@H](NC(=O)Nc1cccc(Br)c1)C(C)C`: the cell number change stood at 56.4%. Under setting [2], the AC50 is 29.1 µM [rising, single point]. In addition, under setting [1], the concentration at half-maximal activity (AC50) is 0.82 µM [falling, full curve, poor fit].
With `O=C(NCc1ccc(F)cc1)c1noc2c1CCCC2`, the cell number change turned out to be 44.1%. In addition, under setting [2], the AC50 is 0.092 µM [rising, full curve, poor fit]. In addition, the AC50 under setting [1] is 25.9 µM [rising, partial curve].
With `CCc1ccc(S(=O)(=O)Nc2ccc(-c3nc4cccnc4s3)cc2)s1`, the cell number change came out at 41%. Under setting [2], the concentration at half-maximal activity (AC50) is 20.6 µM [rising, partial curve, poor fit]. In addition, under setting [1], the AC50 was 6.51 µM [rising, single point].
As to `CCOC(=O)NC(=O)/C(C#N)=N/Nc1c(F)cccc1F`, the cell number change worked out at 14.5%. Also, under setting [1], the AC50 was 0.731 µM [falling, single point].
Take `Cc1ccccc1OCCCN1C(=O)C(=O)c2cccc(C)c21`: the cell number change was -47.4%. In addition, the AC50 under setting [2] was 32.6 µM [falling, single point].
As for `COc1cccc2c1C(=O)C=C(C)C2=O`, the cell number change is -71%. Further, the AC50 under setting [2] was 29.1 µM [falling, single point]. The AC50 under setting [1] is 23.1 µM [falling, partial curve, poor fit].
In the case of `COc1cccc(C(=O)Nc2nnc(-c3ccc(OC)cc3OC)s2)c1`, the cell number change stood at 6.3%. Moreover, under setting [1], the AC50 was 0.116 µM [rising, full curve, poor fit].
As to `CCOC(=O)c1sc(=S)n(C)c1NC(=O)c1ccc(OC)cc1`, the cell number change was found to be 19.8%. Further, under setting [2], the AC50 is 2.91 µM [rising, single point].
On to `O=C(O)CCN1C(=O)c2ccc(NC(=O)c3cccs3)cc2C1=O`, for which the cell number change turned out to be 1.65%. Besides, under setting [1], the AC50 is 29.1 µM [falling, single point].
Turning to `CCCCCc1cc(=O)oc2c(C(CCN3CCCCC3)c3ccc4c(c3)OCO4)c(OC)cc(OC)c12` (stereo unspecified), the cell number change was -65.4%. In addition, the half-maximal activity concentration (AC50) under setting [2] is 29.1 µM [falling, single point]. Under setting [1], the concentration at half-maximal activity (AC50) was 29.1 µM [falling, single point].
Consider `CCN(CC(=O)N1CCC(C(N)=O)CC1)S(=O)(=O)c1ccc(Cl)cc1`, for which the cell number change was -13%. Under setting [2], the AC50 was 0.184 µM [falling, full curve, poor fit]. The AC50 under setting [1] is 0.146 µM [falling, full curve, poor fit].
For the molecule `C=CCn1c(SCc2ccc(F)cc2)nc2c1c(=O)[nH]c(=O)n2C`, the cell number change was -2.08%. Besides, under setting [1], the AC50 is 9.2 µM [rising, single point].
Consider `CCN1CCN(c2c(Cl)cccc2NC(=O)c2ccc(Br)o2)CC1`, for which the AC50 was 1.3 µM [rising, partial curve, poor fit] under setting [2] and 2.91 µM [rising, partial curve] under setting [1].
Consider `O=C(O)c1ccc(NC(=O)c2cccc(C(=O)Nc3ccc(C(=O)O)cc3)n2)cc1`, for which the cell number change was determined as 8.51%. Moreover, the AC50 under setting [1] was 6.51 µM [rising, single point].
In the case of `O=C(NCCCN1CCc2ccccc2C1)C1CCN(S(=O)(=O)N2CCCC2)CC1`, the cell number change is -9.63%.
Regarding `COc1ccc(-c2nnc(SCC(=O)N/N=C/c3ccccc3C(=O)O)n2-c2ccccc2)cc1`, the cell number change was -20.2%.
With `COC(=O)C1=C(C(=O)c2ccccc2)C(c2ccccc2)n2nnnc2N1` (stereo unspecified), the cell number change is -53.1%. Moreover, under setting [2], the concentration at half-maximal activity (AC50) was 5.17 µM [falling, partial curve, poor fit]. Also, under setting [1], the AC50 is 0.92 µM [falling, full curve].
Consider `CCOc1ccc(C(=O)N2CCCC(c3nc(-c4cccs4)no3)C2)cc1` (stereo unspecified), for which the cell number change was determined as 10.6%. Further, under setting [1], the AC50 was 9.2 µM [rising, partial curve].
`CC1CC(C)CN(c2ccc(C(=O)NCc3ccc4c(c3)OCO4)cc2[N+](=O)[O-])C1` (stereo unspecified): the cell number change was -29.3%. In addition, the half-maximal activity concentration (AC50) under setting [1] is 25.9 µM [falling, single point].
Turning to `Cc1onc(-c2c(Cl)cccc2Cl)c1C(=O)NC(=S)N1CCOCC1`, the cell number change was -14.7%. Also, the AC50 under setting [1] is 1.16 µM [falling, full curve].
Take `CCCc1ccc(-c2cc(C(=O)Nc3ccc([N+](=O)[O-])cn3)c3ccccc3n2)cc1`: the cell number change worked out at 21.8%.
Turning to `Cc1ccc(S(=O)(=O)N(C)C)cc1NC(=O)CSc1nc2ccccc2c(=O)n1CC1CCCO1` (stereo unspecified), the AC50 under setting [1] was 0.651 µM [falling, full curve, poor fit].
With `COC(=O)C1CCN(C(=O)COC(=O)CSc2ccc(C(N)=O)cc2[N+](=O)[O-])CC1`, the cell number change is -25%. For the same molecule, the AC50 under setting [1] is 20.6 µM [rising, single point].
Consider `COC(=O)c1cc(NC(=O)Cc2cc(OC)c(OC)c(OC)c2)cc(C(=O)OC)c1`, for which the cell number change was -29.2%. Under setting [2], the AC50 is 0.103 µM [rising, single point].
With `CCn1nc(C(=O)Nc2ccc(C)c(C)c2)c(Cl)c1Cl`, the cell number change was -19.5%. Besides, under setting [1], the AC50 was 2.06 µM [falling, partial curve, poor fit].
Take `O=C(Cc1c(Cl)cccc1Cl)N1CCN(S(=O)(=O)c2cccs2)CC1`: the cell number change is 30.1%. Besides, the AC50 under setting [2] is 0.103 µM [rising, full curve, poor fit]. In addition, under setting [1], the AC50 is 0.0731 µM [rising, full curve, poor fit].
Regarding `O=C(c1cccc(NS(=O)(=O)c2ccc(F)c(F)c2)c1)N1CCCCC1`, the cell number change was -7.15%.
As to `O=C(C1CCCO1)N1CCN(C(=S)Nc2ccccc2)CC1` (stereo unspecified), the cell number change was found to be 76.8%. For the same molecule, the AC50 under setting [2] is 16.4 µM [rising, single point]. Under setting [1], the AC50 was 1.84 µM [rising, single point].
In the case of `CC(=O)[C@@]1(O)CCC2C3C=CC4=CC(=O)CC[C@]4(C)C3CC[C@@]21C` (stereo partly specified), the cell number change was found to be 4.82%. Besides, the AC50 under setting [2] is 2.59 µM [rising, partial curve, poor fit]. Moreover, the AC50 under setting [1] is 29.1 µM [rising, single point].
Consider `CN(C)C(/C=C/Nc1ccc(F)cc1F)=C(C#N)C#N`, for which the cell number change is -81.4%. For the same molecule, the AC50 under setting [2] is 18.4 µM [falling, partial curve, poor fit]. The AC50 under setting [1] was 23.1 µM [falling, partial curve].
As for `COc1ccccc1N(CC(=O)Nc1ccc(Br)cc1F)S(=O)(=O)c1cccs1`, the cell number change stood at 98%. Further, the AC50 under setting [2] is 6.51 µM [rising, partial curve].
As to `CC(=O)OCC(=O)[C@@]1(O)CC[C@H]2[C@@H]3CCC4=CC(=O)C=C[C@]4(C)[C@H]3C(=O)C[C@@]21C`, the cell number change stood at 2.78%.
The same measure, in the same setting: with `O=C(Cn1cnc2ccc(Cl)cc2c1=O)NC1CCS(=O)(=O)C1` (stereo unspecified) the figure was -5%.
On the same count and under the same terms, with `Cc1ccc(CN(CC(=O)NCCc2ccccc2)C(=O)CCCC(=O)Nc2cc(C)on2)cc1` the figure was 13.6%.
As to `COc1cc(CC(=O)Nc2ccc3c(c2)CCC3)cc(OC)c1OC`, the cell number change was -41.2%. Further, under setting [2], the AC50 was 0.92 µM [falling, partial curve]. For the same molecule, the AC50 under setting [1] was 20.6 µM [falling, single point].
On to `CC(C)(C)OC(=O)N/N=C/c1ccc(N2CCOCC2)s1`, for which the cell number change was -56.5%. The AC50 under setting [2] is 2.06 µM [falling, full curve]. Further, the AC50 under setting [1] was 0.731 µM [falling, full curve, poor fit].
